# Reference: PubChem BioAssay AID256 (DTP/NCI, 2004)
# The list does not hold the whole screen: it gathers tests that were run many times, whatever their T/C, doses with no T/C, and many T/C values between a quarter and a half above the control. Further doses and runs are listed elsewhere. T/C gives the treated animals as a percentage of the vehicle group. Some doses have a count of surviving animals in place of a T/C: the source holds a T/C of zero for them, seemingly a mark for toxic or unscored doses. Some doses without a T/C left all or most animals alive at the check, yet need not have been tolerated: the source hardly ever lists a survival T/C far under the control, and the zero likely stands for such cases as well. Counts of survivors are from the toxicity check (mostly the fifth day) where no day follows; animals may have died later. Schedules are NCI's codes, taken here to give the interval after Q, in days (D) or hours (H), and the number of doses after X. Some entries were tested several times; the results are listed from low to high. For survival time, the PubChem record calls one and a half times the control and up active, and a quarter to a half above the control has no call in these data; cut-offs in other NCI protocols can differ. Brackets with × count equal records among those shown. Some T/C values are followed by the survivors on the day toxicity was checked, most often the fifth; without a count, all were alive then.
# Tested on: CD2F1 mice, L1210 leukemia ip, survival T/C
# Assay: NCI In Vivo Anticancer Drug Screen. Data for tumor model L1210 Leukemia (intraperitoneal) in CD2F1 (CDF1) mice
# Conditions: higher T/C = longer survival
# Experimental: The antitumor activity of compounds was measured in mice bearing transplantable tumors. Survival or tumor size were measured and the results are expressed as the measurement made in the treated group (T) divided by the measurement made in the vehicle treated control group (C). The tumor model used in this assay is L1210 Leukemia (intraperitoneal) in CD2F1 (CDF1) mice
# [1] = T/C endpoint: mean survival time, dose: 200.0 mg/kg/injection, schedule: Q04DX003 (ip), vehicle: saline with Tween-80
# [2] = T/C endpoint: mean survival time, dose: 400.0 mg/kg/injection, schedule: Q04DX003 (ip), vehicle: saline with Tween-80
# [3] = T/C endpoint: mean survival time, dose: 400.0 mg/kg/injection, schedule: Q01DX001 (ip), vehicle: saline with Tween-80
# [4] = T/C endpoint: mean survival time, dose: 100.0 mg/kg/injection, schedule: Q01DX009 (ip), vehicle: saline with Tween-80
# [5] = T/C endpoint: mean survival time, dose: 100.0 mg/kg/injection, schedule: Q04DX003 (ip), vehicle: saline with Tween-80
# [6] = T/C endpoint: mean survival time, dose: 200.0 mg/kg/injection, schedule: Q04DX003 (ip), vehicle: saline
# [7] = T/C endpoint: mean survival time, dose: 200.0 mg/kg/injection, schedule: Q01DX009 (ip), vehicle: saline with Tween-80
smiles,measurement,setting,value
CN(C)c1cc(C(C)(C)C)nc(C(C)(C)C)c1,survivor count,"T/C endpoint: mean survival time, dose: 100.0 mg/kg/injection, schedule: Q04DX002 (ip), vehicle: saline",0 of 3
same,survivor count,"T/C endpoint: mean survival time, dose: 200.0 mg/kg/injection, schedule: Q04DX002 (ip), vehicle: saline",0 of 3
same,survivor count,"T/C endpoint: mean survival time, dose: 400.0 mg/kg/injection, schedule: Q04DX002 (ip), vehicle: saline",0 of 3
C1CCC2CN(CCCN3CCOCC3)CC2C1 (configuration not stated),survivor count,"T/C endpoint: mean survival time, dose: 400.0 mg/kg/injection, schedule: Q01DX009 (ip), vehicle: saline",0 of 6
COC(=O)C(N)CSCc1ccccc1 (configuration not stated),survivor count,"T/C endpoint: mean survival time, dose: 200.0 mg/kg/injection, schedule: Q01DX001 (ip), vehicle: saline",3 of 6
O=C(O)c1ccc(C(=O)O)o1.[NH-]C1CCCCC1[NH-].[Pt+2],T/C,"T/C endpoint: mean survival time, dose: 5.0 mg/kg/injection, schedule: Q04DX003 (ip), vehicle: dextrose",129 % of control
same,T/C,"T/C endpoint: mean survival time, dose: 20.0 mg/kg/injection, schedule: Q04DX003 (ip), vehicle: dextrose",127 % of control
CNCCOc1ccc(Cl)cc1,survivor count,[1],0 of 6
same,survivor count,[2],0 of 6
Cc1sc2cc(N)ccc2[n+]1C,survivor count,"T/C endpoint: mean survival time, dose: 400.0 mg/kg/injection, schedule: Q04DX002 (ip), vehicle: saline with Tween-80",0 of 3
CC(=O)C(=O)C1=C2CCCN2CCc2cc3c(cc21)OCO3,survivor count,"T/C endpoint: mean survival time, dose: 200.0 mg/kg/injection, schedule: Q01DX009 (ip), vehicle: water",1 of 6
same,survivor count,"T/C endpoint: mean survival time, dose: 400.0 mg/kg/injection, schedule: Q01DX009 (ip), vehicle: water",0 of 6
C=C1C(=O)OCC1(C(=O)OCC)C(=O)OCC,survivor count,"T/C endpoint: mean survival time, dose: 80.0 mg/kg/injection, schedule: Q01DX001 (ip), vehicle: saline",2 of 6
COc1ccccc1-n1c(O)c(N=Nc2ccccc2)c(=O)n(-c2ccccc2OC)c1=S,survivor count,[3],2 of 6
C=C(OP(=O)(OC)OC)Sc1ccccc1C,survivor count,"T/C endpoint: median survival time, dose: 1.5 mg/kg/injection, schedule: Q01DX009 (ip), vehicle: Klucel (hydroxypropylcellulose) (HPC)",4 of 6
same,survivor count,"T/C endpoint: median survival time, dose: 3.0 mg/kg/injection, schedule: Q01DX009 (ip), vehicle: Klucel (hydroxypropylcellulose) (HPC)",0 of 6
same,survivor count,"T/C endpoint: median survival time, dose: 6.0 mg/kg/injection, schedule: Q01DX009 (ip), vehicle: Klucel (hydroxypropylcellulose) (HPC)",0 of 6
[N-]=[N+]=NCc1cn(C2CC(O)C(CO)O2)c(=O)[nH]c1=O (configuration not stated),survivor count,"T/C endpoint: mean survival time, dose: 100.0 mg/kg/injection, schedule: Q01DX005 (ip), vehicle: water",1 of 3
O=C(CCCl)OCCCl,survivor count,[2],1 of 6
O=C(CC(O)(C(F)(F)F)C(F)(F)F)C(Cl)C(O)(C(F)(F)F)C(F)(F)F (configuration not stated),survivor count,"T/C endpoint: mean survival time, dose: 200.0 mg/kg/injection, schedule: Q01DX001 (ip), vehicle: other",0 of 6
same,survivor count,"T/C endpoint: mean survival time, dose: 400.0 mg/kg/injection, schedule: Q01DX001 (ip), vehicle: other",1 of 6
Nc1nc(SSc2nc(N)nc3c2ncn3C2OC(CO)CC2O)c2ncn(C3OC(CO)CC3O)c2n1 (configuration not stated),T/C,"T/C endpoint: mean survival time, dose: 75.0 mg/kg/injection, schedule: Q01DX001 (ip), vehicle: saline",133 % of control
same,T/C,"T/C endpoint: mean survival time, dose: 150.0 mg/kg/injection, schedule: Q01DX001 (ip), vehicle: saline",131 % of control
CC(Cc1ccc2c(c1)OCO2)NCC(O)c1ccc(O)c(O)c1 (configuration not stated),survivor count,"T/C endpoint: mean survival time, dose: 400.0 mg/kg/injection, schedule: Q01DX001 (ip), vehicle: saline",0 of 6
Nc1cc2c3c(cccc3c1)C(=O)N(CCN1CCCC1)C2=O,T/C,"T/C endpoint: mean survival time, dose: 50.0 mg/kg/injection, schedule: Q01DX009 (ip), vehicle: saline with Tween-80",131 % of control (2×)
same,T/C,[4],125 and 138 % of control [8 of 10 alive]
Nc1nc[nH]c(=O)c1NC(=O)c1cccc([N+](=O)[O-])c1,T/C,[5],"94, 97, 100, 108 % of control"
same,T/C,[1],"89, 101, 110 % of control [5 of 6 alive]"
same,survivor count,[1],3 of 3
same,T/C,[2],"98 [4 of 6 alive], 101, 106 % of control [5 of 6 alive]"
same,survivor count,[2],0 of 3
Nc1cc(OCc2ccccc2)c2n[nH]nc2n1,survivor count,"T/C endpoint: mean survival time, dose: 100.0 mg/kg/injection, schedule: Q01DX005 (ip), vehicle: other",3 of 3
CC1C=CC(=O)O1 (configuration not stated),survivor count,"T/C endpoint: mean survival time, dose: 200.0 mg/kg/injection, schedule: Q04DX002 (ip), vehicle: saline with Tween-80",1 of 3
CC(=O)OCC1OC([S-])C(OC(C)=O)C(OC(C)=O)C1OC(C)=O.CC[PH+](CC)CC.CC[PH+](CC)CC.[Au].[Au] (configuration not stated),survivor count,"T/C endpoint: mean survival time, dose: 20.0 mg/kg/injection, schedule: Q01DX009 (ip), vehicle: Klucel (hydroxypropylcellulose) (HPC)",0 of 10 and 0 of 6
Cc1cc[n+](-c2c3c(nc4ccccc24)-c2ccccc2C(C)(C)C3)cc1,survivor count,"T/C endpoint: mean survival time, dose: 100.0 mg/kg/injection, schedule: Q04DX003 (ip), vehicle: saline sonified",6 of 6
same,survivor count,"T/C endpoint: mean survival time, dose: 200.0 mg/kg/injection, schedule: Q01DX001 (ip), vehicle: saline with Tween-80",0 of 6
same,survivor count,[3],0 of 6
CNc1nc(NC)nc(NC)n1,survivor count,"T/C endpoint: mean survival time, dose: 400.0 mg/kg/injection, schedule: Q01DX009 (ip), vehicle: Klucel (hydroxypropylcellulose) (HPC)",0 of 6
CC(=O)c1c(C)c2c(C)cc3oc(=O)c(C(C)=O)c(C)c3c2oc1=O,survivor count,"T/C endpoint: mean survival time, dose: 100.0 mg/kg/injection, schedule: Q04DX002 (ip), vehicle: saline with Tween-80",3 of 3
Cc1ccc2c(ccc(CC(=S)[S-])[n+]2C)c1,survivor count,"T/C endpoint: mean survival time, dose: 200.0 mg/kg/injection, schedule: Q01DX009 (ip), vehicle: Klucel (hydroxypropylcellulose) (HPC)",0 of 6 and 5 of 6
C#CCOCCCC(=C)C,survivor count,"T/C endpoint: mean survival time, dose: 200.0 mg/kg/injection, schedule: Q01DX001 (ip), vehicle: acetone",4 of 6
same,survivor count,"T/C endpoint: mean survival time, dose: 400.0 mg/kg/injection, schedule: Q01DX001 (ip), vehicle: acetone",0 of 6
CCN(CC)CCOc1ccc(NC(=O)c2ccccc2)cc1,survivor count,"T/C endpoint: mean survival time, dose: 100.0 mg/kg/injection, schedule: Q04DX003 (ip), vehicle: saline",0 of 3
same,survivor count,[6],0 of 3
same,survivor count,"T/C endpoint: mean survival time, dose: 400.0 mg/kg/injection, schedule: Q04DX003 (ip), vehicle: saline",0 of 3
Cc1cc2c(cc1C)N(C(=O)CN1CCCCC1)CC(=O)N2,survivor count,"T/C endpoint: mean survival time, dose: 300.0 mg/kg/injection, schedule: Q04DX003 (ip), vehicle: saline",0 of 6
CCS(=O)(=O)OCCCNCCCOS(=O)(=O)CC,T/C,"T/C endpoint: mean survival time, dose: 50.0 mg/kg/injection, schedule: Q01DX001 (ip), vehicle: saline",129 % of control
CC(C)=CC[P+](C)(c1ccccc1)c1ccccc1,survivor count,"T/C endpoint: mean survival time, dose: 6.25 mg/kg/injection, schedule: Q04DX003 (ip), vehicle: saline",0 of 3
same,survivor count,"T/C endpoint: mean survival time, dose: 12.5 mg/kg/injection, schedule: Q04DX003 (ip), vehicle: saline",0 of 3
same,survivor count,"T/C endpoint: mean survival time, dose: 25.0 mg/kg/injection, schedule: Q04DX003 (ip), vehicle: saline",0 of 3
same,survivor count,[5],0 of 3
same,survivor count,[1],0 of 3
same,survivor count,[2],0 of 3
ONc1ccccn1,survivor count,[6],2 of 6
COC(=O)N/N=C/C=C/c1ccccc1,survivor count,[4],3 of 6
same,survivor count,[7],0 of 6
same,survivor count,"T/C endpoint: mean survival time, dose: 400.0 mg/kg/injection, schedule: Q01DX009 (ip), vehicle: saline with Tween-80",2 of 6
O=C(Nc1ccc(C(=O)O)cc1)Nc1ccc(F)c(Cl)c1,survivor count,"T/C endpoint: mean survival time, dose: 400.0 mg/kg/injection, schedule: Q04DX003 (ip), vehicle: Klucel (hydroxypropylcellulose) (HPC)",2 of 6
CC(C)NC(=O)C1CC2c3cccc4[nH]cc(c34)CC2N(C)C1 (configuration not stated),survivor count,[1],0 of 6
Cc1ccc(NC(=O)CCl)cc1Cl,survivor count,[7],3 of 6
same,survivor count,[2],2 of 6
CCOc1c[n+](C)c(C)s1,survivor count,"T/C endpoint: mean survival time, dose: 400.0 mg/kg/injection, schedule: Q01DX001 (ip), vehicle: carboxymethylcellulose (CMC)",0 of 4
